According to the supplement of paper PMC10849652:
This is one part of the list.

Chains of the proteins cited; added tags and fusions are not shown. Lines headed by an entry give the natural chain unless they say otherwise; changes in a name come on top.
UniProt P31949: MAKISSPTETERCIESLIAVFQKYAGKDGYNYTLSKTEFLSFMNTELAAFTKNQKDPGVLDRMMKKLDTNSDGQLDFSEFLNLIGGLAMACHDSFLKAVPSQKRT
UniProt O00442: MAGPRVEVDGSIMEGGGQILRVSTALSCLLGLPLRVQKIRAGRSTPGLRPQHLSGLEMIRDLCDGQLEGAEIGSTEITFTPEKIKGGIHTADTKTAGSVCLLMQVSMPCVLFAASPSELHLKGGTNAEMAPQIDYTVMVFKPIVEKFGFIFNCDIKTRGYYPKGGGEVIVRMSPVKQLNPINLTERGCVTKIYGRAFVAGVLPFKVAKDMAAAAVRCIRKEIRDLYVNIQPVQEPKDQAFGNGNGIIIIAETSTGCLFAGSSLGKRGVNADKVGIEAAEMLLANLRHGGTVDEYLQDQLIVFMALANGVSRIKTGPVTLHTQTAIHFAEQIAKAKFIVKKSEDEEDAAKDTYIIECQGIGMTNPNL
UniProt P29034: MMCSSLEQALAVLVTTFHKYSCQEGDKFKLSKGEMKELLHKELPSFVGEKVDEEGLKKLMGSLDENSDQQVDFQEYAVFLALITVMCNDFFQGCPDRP
UniProt Q9HA92: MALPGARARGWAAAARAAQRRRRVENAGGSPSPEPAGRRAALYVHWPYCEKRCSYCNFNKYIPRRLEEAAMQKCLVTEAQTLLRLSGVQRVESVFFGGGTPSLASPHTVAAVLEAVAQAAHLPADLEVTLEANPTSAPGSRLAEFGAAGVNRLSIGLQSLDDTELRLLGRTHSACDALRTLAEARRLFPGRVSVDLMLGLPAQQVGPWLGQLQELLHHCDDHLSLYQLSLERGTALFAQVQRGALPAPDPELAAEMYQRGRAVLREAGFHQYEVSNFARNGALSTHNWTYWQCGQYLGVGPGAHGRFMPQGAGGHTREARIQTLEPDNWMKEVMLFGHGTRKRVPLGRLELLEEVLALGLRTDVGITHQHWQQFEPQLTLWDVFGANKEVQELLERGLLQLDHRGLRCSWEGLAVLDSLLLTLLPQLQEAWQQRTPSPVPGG
UniProt O95059: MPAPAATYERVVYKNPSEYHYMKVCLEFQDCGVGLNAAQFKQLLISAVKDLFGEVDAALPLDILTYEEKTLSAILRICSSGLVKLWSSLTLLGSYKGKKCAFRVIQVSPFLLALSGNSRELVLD
UniProt P57060: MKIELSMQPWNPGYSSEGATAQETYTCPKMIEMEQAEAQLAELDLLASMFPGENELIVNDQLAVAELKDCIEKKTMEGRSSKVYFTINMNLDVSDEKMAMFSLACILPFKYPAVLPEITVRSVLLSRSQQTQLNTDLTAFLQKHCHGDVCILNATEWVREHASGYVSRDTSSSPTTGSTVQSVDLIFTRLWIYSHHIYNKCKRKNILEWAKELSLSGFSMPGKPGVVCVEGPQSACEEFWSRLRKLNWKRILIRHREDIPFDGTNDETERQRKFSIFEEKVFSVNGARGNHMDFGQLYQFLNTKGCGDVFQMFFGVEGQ
UniProt Q96T23: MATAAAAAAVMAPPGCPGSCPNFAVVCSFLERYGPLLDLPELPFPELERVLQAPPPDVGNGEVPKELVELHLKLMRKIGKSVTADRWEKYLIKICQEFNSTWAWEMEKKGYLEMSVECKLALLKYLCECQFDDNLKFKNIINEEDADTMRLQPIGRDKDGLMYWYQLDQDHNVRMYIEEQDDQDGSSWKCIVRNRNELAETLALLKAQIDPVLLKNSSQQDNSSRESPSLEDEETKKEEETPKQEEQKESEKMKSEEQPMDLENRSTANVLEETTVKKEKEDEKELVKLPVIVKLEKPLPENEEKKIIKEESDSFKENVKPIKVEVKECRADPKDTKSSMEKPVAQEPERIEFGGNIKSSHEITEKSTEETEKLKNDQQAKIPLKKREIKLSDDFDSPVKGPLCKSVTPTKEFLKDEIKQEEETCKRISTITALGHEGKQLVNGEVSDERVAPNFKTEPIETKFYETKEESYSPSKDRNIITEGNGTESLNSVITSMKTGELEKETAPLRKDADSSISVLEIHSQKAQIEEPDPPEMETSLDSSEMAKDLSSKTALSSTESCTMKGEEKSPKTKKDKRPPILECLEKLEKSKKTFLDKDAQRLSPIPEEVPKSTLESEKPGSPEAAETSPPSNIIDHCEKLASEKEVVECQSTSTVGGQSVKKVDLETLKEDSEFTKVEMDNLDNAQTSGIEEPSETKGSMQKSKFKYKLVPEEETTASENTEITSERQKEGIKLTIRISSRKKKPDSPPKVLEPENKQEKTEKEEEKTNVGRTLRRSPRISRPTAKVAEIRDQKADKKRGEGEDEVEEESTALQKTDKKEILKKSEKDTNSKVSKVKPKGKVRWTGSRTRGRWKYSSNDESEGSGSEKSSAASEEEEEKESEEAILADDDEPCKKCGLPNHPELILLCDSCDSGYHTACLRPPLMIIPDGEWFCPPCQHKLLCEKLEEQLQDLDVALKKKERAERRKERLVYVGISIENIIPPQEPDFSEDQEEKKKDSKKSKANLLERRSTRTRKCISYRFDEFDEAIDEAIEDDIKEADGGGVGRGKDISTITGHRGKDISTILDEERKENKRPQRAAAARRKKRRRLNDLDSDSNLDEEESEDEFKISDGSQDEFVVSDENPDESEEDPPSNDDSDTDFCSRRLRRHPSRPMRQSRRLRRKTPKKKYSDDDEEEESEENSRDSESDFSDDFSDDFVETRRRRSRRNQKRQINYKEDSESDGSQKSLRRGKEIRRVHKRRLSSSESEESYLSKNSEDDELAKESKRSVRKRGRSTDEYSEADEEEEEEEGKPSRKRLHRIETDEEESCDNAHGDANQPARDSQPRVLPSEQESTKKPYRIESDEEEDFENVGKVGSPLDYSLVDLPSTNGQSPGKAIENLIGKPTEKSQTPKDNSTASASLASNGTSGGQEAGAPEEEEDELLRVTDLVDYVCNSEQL
UniProt Q9HCY8: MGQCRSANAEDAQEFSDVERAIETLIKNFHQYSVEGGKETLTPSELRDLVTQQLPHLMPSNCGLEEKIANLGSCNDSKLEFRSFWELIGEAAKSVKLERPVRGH
UniProt Q6PCB5: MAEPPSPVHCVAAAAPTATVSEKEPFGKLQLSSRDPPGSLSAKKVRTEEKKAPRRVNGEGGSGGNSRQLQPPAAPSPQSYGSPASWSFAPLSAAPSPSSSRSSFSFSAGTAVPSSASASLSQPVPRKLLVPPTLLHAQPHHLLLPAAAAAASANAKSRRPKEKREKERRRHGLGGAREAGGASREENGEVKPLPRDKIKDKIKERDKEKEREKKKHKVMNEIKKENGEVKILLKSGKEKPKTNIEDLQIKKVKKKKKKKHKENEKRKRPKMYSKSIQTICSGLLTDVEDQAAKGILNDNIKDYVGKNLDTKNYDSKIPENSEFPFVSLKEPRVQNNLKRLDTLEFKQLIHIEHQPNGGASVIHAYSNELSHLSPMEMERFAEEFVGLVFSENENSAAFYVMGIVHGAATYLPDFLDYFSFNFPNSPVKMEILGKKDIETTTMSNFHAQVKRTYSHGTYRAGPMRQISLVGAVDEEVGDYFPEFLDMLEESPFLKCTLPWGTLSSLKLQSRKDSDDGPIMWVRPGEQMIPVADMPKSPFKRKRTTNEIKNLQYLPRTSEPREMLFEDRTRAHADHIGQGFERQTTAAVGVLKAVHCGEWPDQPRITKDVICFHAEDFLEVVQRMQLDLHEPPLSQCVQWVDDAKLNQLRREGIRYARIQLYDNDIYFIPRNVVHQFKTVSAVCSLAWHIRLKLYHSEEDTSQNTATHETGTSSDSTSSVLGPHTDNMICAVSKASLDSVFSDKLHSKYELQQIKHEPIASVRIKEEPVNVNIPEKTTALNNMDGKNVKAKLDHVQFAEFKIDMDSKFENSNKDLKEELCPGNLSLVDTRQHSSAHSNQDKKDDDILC
UniProt P04844: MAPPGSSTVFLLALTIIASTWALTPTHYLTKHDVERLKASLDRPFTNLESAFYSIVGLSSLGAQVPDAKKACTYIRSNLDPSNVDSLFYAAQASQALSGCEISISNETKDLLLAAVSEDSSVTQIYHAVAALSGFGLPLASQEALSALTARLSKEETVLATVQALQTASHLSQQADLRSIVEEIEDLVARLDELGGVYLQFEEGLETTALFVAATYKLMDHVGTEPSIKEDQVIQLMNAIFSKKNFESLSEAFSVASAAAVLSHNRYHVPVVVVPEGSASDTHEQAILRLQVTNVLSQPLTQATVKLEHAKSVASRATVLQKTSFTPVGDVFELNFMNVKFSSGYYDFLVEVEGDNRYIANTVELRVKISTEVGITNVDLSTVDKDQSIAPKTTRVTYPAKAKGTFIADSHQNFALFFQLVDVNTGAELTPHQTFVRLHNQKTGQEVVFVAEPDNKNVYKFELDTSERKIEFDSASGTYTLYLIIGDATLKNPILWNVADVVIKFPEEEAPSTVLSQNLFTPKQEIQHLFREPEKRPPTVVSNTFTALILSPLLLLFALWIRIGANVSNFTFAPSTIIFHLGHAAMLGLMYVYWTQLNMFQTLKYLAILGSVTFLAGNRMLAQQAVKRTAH
UniProt Q9Y3A4: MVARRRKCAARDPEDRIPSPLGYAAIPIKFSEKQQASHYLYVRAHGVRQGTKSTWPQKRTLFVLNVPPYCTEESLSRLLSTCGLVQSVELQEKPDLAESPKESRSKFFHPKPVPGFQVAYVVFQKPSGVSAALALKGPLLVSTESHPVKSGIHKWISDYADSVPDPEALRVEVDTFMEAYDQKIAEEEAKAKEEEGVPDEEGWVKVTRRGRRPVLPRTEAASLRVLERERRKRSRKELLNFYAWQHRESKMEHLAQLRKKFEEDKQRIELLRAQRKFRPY
UniProt Q9NYV6: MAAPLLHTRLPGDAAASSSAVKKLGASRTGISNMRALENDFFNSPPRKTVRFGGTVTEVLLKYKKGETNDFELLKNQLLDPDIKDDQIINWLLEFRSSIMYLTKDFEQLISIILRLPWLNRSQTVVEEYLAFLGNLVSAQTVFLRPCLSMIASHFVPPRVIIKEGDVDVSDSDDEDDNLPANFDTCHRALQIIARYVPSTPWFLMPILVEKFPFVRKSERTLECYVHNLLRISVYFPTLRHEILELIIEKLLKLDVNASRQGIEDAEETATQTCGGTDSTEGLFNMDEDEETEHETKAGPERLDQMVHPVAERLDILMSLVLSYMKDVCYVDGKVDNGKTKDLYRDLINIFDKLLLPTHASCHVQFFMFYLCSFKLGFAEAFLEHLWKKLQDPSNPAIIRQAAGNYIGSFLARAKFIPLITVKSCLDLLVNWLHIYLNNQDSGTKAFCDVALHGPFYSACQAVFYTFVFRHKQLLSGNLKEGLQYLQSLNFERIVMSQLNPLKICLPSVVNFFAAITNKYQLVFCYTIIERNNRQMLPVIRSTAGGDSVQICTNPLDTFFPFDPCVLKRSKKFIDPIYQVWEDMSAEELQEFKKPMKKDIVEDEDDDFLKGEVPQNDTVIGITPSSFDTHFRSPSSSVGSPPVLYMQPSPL
UniProt Q15418, whole entry, looked up: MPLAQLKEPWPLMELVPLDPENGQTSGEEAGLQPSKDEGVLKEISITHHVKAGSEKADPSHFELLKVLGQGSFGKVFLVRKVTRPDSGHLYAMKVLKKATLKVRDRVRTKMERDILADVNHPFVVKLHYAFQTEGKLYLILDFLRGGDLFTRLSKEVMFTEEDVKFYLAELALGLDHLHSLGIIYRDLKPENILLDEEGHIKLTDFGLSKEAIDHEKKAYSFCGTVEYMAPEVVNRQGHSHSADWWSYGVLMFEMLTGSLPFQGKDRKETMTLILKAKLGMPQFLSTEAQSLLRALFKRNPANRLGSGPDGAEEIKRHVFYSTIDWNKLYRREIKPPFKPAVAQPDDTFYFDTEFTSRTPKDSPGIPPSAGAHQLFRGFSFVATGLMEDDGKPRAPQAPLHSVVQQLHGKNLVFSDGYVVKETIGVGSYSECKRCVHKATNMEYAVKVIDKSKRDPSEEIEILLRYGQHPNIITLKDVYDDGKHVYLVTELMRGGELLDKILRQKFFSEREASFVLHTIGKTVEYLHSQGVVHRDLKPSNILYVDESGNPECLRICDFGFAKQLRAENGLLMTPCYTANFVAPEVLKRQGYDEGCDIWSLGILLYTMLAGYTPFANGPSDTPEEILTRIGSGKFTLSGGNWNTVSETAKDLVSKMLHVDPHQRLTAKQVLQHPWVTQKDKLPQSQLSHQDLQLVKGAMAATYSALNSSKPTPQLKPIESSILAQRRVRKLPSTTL
UniProt Q9Y265, whole entry, looked up: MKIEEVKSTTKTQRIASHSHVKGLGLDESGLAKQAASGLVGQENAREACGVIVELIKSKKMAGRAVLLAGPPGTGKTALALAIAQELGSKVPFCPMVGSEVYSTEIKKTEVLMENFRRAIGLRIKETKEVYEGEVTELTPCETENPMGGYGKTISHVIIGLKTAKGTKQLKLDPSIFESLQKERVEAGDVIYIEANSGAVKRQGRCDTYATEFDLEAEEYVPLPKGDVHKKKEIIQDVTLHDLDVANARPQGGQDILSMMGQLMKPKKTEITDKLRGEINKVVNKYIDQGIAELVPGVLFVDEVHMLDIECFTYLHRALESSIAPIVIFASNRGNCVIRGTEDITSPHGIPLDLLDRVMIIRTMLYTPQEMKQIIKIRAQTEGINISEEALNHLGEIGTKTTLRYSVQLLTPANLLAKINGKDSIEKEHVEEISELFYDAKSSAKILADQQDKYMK

compound: CC[C@@H]1C(=O)N(C)c2cnc(Nc3ccc(C(=O)NC4CCN(C)CC4)cc3OC)nc2N1C1CCCC1; assay: log2 fold change, soluble protein after heating vs DMSO (PISA); higher = thermal stabilisation; K562 lysate, 10 uM; active = over 0.2 and 3.5 SD of the protein, either way, in both replicates (recomputed)
Outline: (§1)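 Dounce homogenisation of K562 pellets in PBS pH 7.4 with 1 mM MgCl2 produced a crude extract, used at 1 mg/mL protein. Exposure to 10 μM compound lasted 30 min, and aliquots were then heated for 3 min across 48°C-58°C, pooled and brought to 0.5% NP-40 at 4°C. The supernatant after 21,000xg for 90 min was quantified by TMTpro 16plex LC-MS/MS with channel sums equalised. Duplicate values are given as log-two fold change in thermal stability relative to solvent controls.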

**Q.** RPS27L (UniProt Q71UM5) was tested. Which log2 fold change did it give?
**A.** inactive: -0.004

**Q.** With RTTN (UniProt Q86VV8) as the target, how does the log2 fold change read?
**A.** inactive: -0.101

**Q.** Which log2 fold change does the source give for S100A11 (UniProt P31949) here?
**A.** inactive: 0.037

**Q.** For RTCA (UniProt O00442), which log2 fold change is on record?
**A.** inactive: 0.039

**Q.** How did the log2 fold change turn out when S100A2 (UniProt P29034) was run?
**A.** inactive: 0.062

**Q.** How did the log2 fold change turn out when RSRC2 (UniProt Q7L4I2) was run?
**A.** inactive: 0.071

**Q.** With RYR1 (UniProt P21817) as the target, how does the log2 fold change read?
**A.** inactive: 0.07

**Q.** How did the log2 fold change turn out when RSAD1 (UniProt Q9HA92) was run?
**A.** inactive: 0.388

**Q.** How did the log2 fold change turn out when RPP14 (UniProt O95059) was run?
**A.** inactive: -0.009

**Q.** With RPS26 (UniProt P62854) as the target, how does the log2 fold change read?
**A.** inactive: 0.032

**Q.** Which log2 fold change does the source give for RPP38 (UniProt P78345) here?
**A.** inactive: 0.04

**Q.** For RWDD2B (UniProt P57060), which log2 fold change is on record?
**A.** inactive: 0.127

**Q.** RREB1 isoform 2 (UniProt Q92766) was tested. Which log2 fold change did it give?
**A.** inactive: -0.046

**Q.** With RPP25L (UniProt Q8N5L8) as the target, how does the log2 fold change read?
**A.** inactive: 0.112

**Q.** For RSF1 (UniProt Q96T23), which log2 fold change is on record?
**A.** inactive: 0.007

**Q.** How did the log2 fold change turn out when RPS7, A0A2R8Y623 was run?
**A.** inactive: -0.07

**Q.** With S100A14 (UniProt Q9HCY8) as the target, how does the log2 fold change read?
**A.** inactive: -0.332

**Q.** Which log2 fold change does the source give for RXRB isoform 3 (UniProt P28702) here?
**A.** inactive: 0.008

**Q.** With RSBN1L (UniProt Q6PCB5) as the target, how does the log2 fold change read?
**A.** inactive: 0.026

**Q.** For RPN2 (UniProt P04844), which log2 fold change is on record?
**A.** inactive: 0

**Q.** For RPS2 (UniProt P15880), which log2 fold change is on record?
**A.** inactive: 0.001

**Q.** RPS3A (UniProt P61247) was tested. Which log2 fold change did it give?
**A.** inactive: -0.035

**Q.** How did the log2 fold change turn out when RRP7A (UniProt Q9Y3A4) was run?
**A.** inactive: 0.08

**Q.** Which log2 fold change does the source give for RPS24 isoform 4 (UniProt P62847) here?
**A.** inactive: 0.021

**Q.** How did the log2 fold change turn out when RRN3 (UniProt Q9NYV6) was run?
**A.** inactive: -0.034

**Q.** RTL10 (UniProt Q7L3V2) was tested. Which log2 fold change did it give?
**A.** inactive: 0.074

**Q.** With RPS6KA1 (UniProt Q15418) as the target, how does the log2 fold change read?
**A.** inactive: 0.037

**Q.** Which log2 fold change does the source give for RUVBL1 (UniProt Q9Y265) here?
**A.** inactive: -0.004

compound: CC[C@@H]1C(=O)N(C)c2cnc(Nc3ccc(C(=O)N[C@H]4CC[C@H](N5CCN(CC6CC6)CC5)CC4)cc3OC)nc2N1C(C)C [volasertib]; assay: as above
Outline: as §1

**Q.** For RPS27L (UniProt Q71UM5), which log2 fold change is on record?
**A.** inactive: 0.003

**Q.** RTTN (UniProt Q86VV8) was tested. Which log2 fold change did it give?
**A.** inactive: -0.293

**Q.** S100A11 (UniProt P31949) was tested. Which log2 fold change did it give?
**A.** inactive: 0.098

**Q.** For RTCA (UniProt O00442), which log2 fold change is on record?
**A.** inactive: -0.06

**Q.** For S100A2 (UniProt P29034), which log2 fold change is on record?
**A.** inactive: -0.051

**Q.** How did the log2 fold change turn out when RSRC2 (UniProt Q7L4I2) was run?
**A.** inactive: 0.033

**Q.** For RYR1 (UniProt P21817), which log2 fold change is on record?
**A.** inactive: -0.049

**Q.** With RSAD1 (UniProt Q9HA92) as the target, how does the log2 fold change read?
**A.** inactive: -0.013

**Q.** Which log2 fold change does the source give for RPP14 (UniProt O95059) here?
**A.** inactive: 0.005

**Q.** Which log2 fold change does the source give for RPS26 (UniProt P62854) here?
**A.** inactive: 0.021

**Q.** For RPP38 (UniProt P78345), which log2 fold change is on record?
**A.** inactive: 0.004

**Q.** RWDD2B (UniProt P57060) was tested. Which log2 fold change did it give?
**A.** inactive: 0

**Q.** RREB1 isoform 2 (UniProt Q92766) was tested. Which log2 fold change did it give?
**A.** inactive: -0.092

**Q.** Which log2 fold change does the source give for RPP25L (UniProt Q8N5L8) here?
**A.** inactive: 0.025

**Q.** RSF1 (UniProt Q96T23) was tested. Which log2 fold change did it give?
**A.** inactive: 0.016

**Q.** RPS7, A0A2R8Y623 was tested. Which log2 fold change did it give?
**A.** inactive: 0.016

**Q.** Which log2 fold change does the source give for S100A14 (UniProt Q9HCY8) here?
**A.** inactive: -0.039

**Q.** RPS6KA3 (UniProt P51812) was tested. Which log2 fold change did it give?
**A.** inactive: -0.026

**Q.** With RXRB isoform 3 (UniProt P28702) as the target, how does the log2 fold change read?
**A.** inactive: -0.125

**Q.** How did the log2 fold change turn out when RSBN1L (UniProt Q6PCB5) was run?
**A.** inactive: -0.031

**Q.** RPN2 (UniProt P04844) was tested. Which log2 fold change did it give?
**A.** inactive: 0.003

**Q.** How did the log2 fold change turn out when RPS2 (UniProt P15880) was run?
**A.** inactive: -0.005

**Q.** Which log2 fold change does the source give for RPS3A (UniProt P61247) here?
**A.** inactive: -0.004

**Q.** Which log2 fold change does the source give for RRP7A (UniProt Q9Y3A4) here?
**A.** inactive: 0.067

**Q.** RPS24 isoform 4 (UniProt P62847) was tested. Which log2 fold change did it give?
**A.** inactive: 0.002

**Q.** How did the log2 fold change turn out when RRN3 (UniProt Q9NYV6) was run?
**A.** inactive: -0.006

**Q.** Which log2 fold change does the source give for RUFY3 isoform 2 (UniProt Q7L099) here?
**A.** inactive: -0.095

**Q.** RPS6KA1 (UniProt Q15418) was tested. Which log2 fold change did it give?
**A.** inactive: 0.029

**Q.** Which log2 fold change does the source give for RUVBL1 (UniProt Q9Y265) here?
**A.** inactive: -0.012

**Q.** Which log2 fold change does the source give for S100A16 (UniProt Q96FQ6) here?
**A.** inactive: -0.171

compound: CCn1c(C(=O)N(C2CC2)C2CC2)cc2c3c(ncn3C)c(Nc3cc(C)n(C)n3)nc21; assay: as above
Outline: as §1

**Q.** How did the log2 fold change turn out when RPS27L (UniProt Q71UM5) was run?
**A.** inactive: -0.001

**Q.** With RTTN (UniProt Q86VV8) as the target, how does the log2 fold change read?
**A.** inactive: 0.099

**Q.** With S100A11 (UniProt P31949) as the target, how does the log2 fold change read?
**A.** inactive: 0.004

**Q.** RTCA (UniProt O00442) was tested. Which log2 fold change did it give?
**A.** inactive: -0.024

**Q.** For S100A2 (UniProt P29034), which log2 fold change is on record?
**A.** inactive: -0.248

**Q.** Which log2 fold change does the source give for RSRC2 (UniProt Q7L4I2) here?
**A.** inactive: 0.01

**Q.** For RYR1 (UniProt P21817), which log2 fold change is on record?
**A.** inactive: -0.053

**Q.** Which log2 fold change does the source give for RSAD1 (UniProt Q9HA92) here?
**A.** inactive: -0.092

**Q.** RPP14 (UniProt O95059) was tested. Which log2 fold change did it give?
**A.** inactive: -0.007

**Q.** With RPS26 (UniProt P62854) as the target, how does the log2 fold change read?
**A.** inactive: -0.072

**Q.** With RPP38 (UniProt P78345) as the target, how does the log2 fold change read?
**A.** inactive: -0.011

**Q.** RPUSD4 (UniProt Q96CM3) was tested. Which log2 fold change did it give?
**A.** inactive: -0.009

**Q.** Which log2 fold change does the source give for RWDD2B (UniProt P57060) here?
**A.** inactive: -0.011

**Q.** How did the log2 fold change turn out when RREB1 isoform 2 (UniProt Q92766) was run?
**A.** inactive: -0.045

**Q.** With RPP25L (UniProt Q8N5L8) as the target, how does the log2 fold change read?
**A.** inactive: 0.028

**Q.** With RSF1 (UniProt Q96T23) as the target, how does the log2 fold change read?
**A.** inactive: 0.003

**Q.** How did the log2 fold change turn out when S100A14 (UniProt Q9HCY8) was run?
**A.** inactive: 0.17

**Q.** For RPS6KA3 (UniProt P51812), which log2 fold change is on record?
**A.** inactive: 0.133

**Q.** For RSBN1L (UniProt Q6PCB5), which log2 fold change is on record?
**A.** inactive: -0.008

**Q.** Which log2 fold change does the source give for RPN2 (UniProt P04844) here?
**A.** inactive: -0.003

**Q.** RPS2 (UniProt P15880) was tested. Which log2 fold change did it give?
**A.** inactive: -0.019

**Q.** With RPS3A (UniProt P61247) as the target, how does the log2 fold change read?
**A.** inactive: 0.033

**Q.** RRP7A (UniProt Q9Y3A4) was tested. Which log2 fold change did it give?
**A.** inactive: -0.115

**Q.** For RPS24 isoform 4 (UniProt P62847), which log2 fold change is on record?
**A.** inactive: 0.006

**Q.** RRN3 (UniProt Q9NYV6) was tested. Which log2 fold change did it give?
**A.** inactive: -0.028

**Q.** For S100A10 (UniProt P60903), which log2 fold change is on record?
**A.** inactive: -0.198

**Q.** For RUFY3 isoform 2 (UniProt Q7L099), which log2 fold change is on record?
**A.** inactive: 0.089

**Q.** With RTL10 (UniProt Q7L3V2) as the target, how does the log2 fold change read?
**A.** inactive: -0.011

**Q.** With RPS6KA1 (UniProt Q15418) as the target, how does the log2 fold change read?
**A.** inactive: 0.019

**Q.** For RUVBL1 (UniProt Q9Y265), which log2 fold change is on record?
**A.** inactive: -0.007
